From paper PMC9690818
The exact form of at least one protein or probe is not confirmed.

Target: glycated albumin (GA) (UniProt P02768)
Assay: electrochemical aptasensor (CV/EIS), immobilized aptamer
Settings: linear 1-10000 ug/mL, LOD 0.40 ug/mL (not a Kd), ferri/ferrocyanide redox probe; 5' amino (NH2), coupled to polydopamine nanoparticles on carbon electrode; 1 uM aptamer immobilized on PDA-NP/SPCE, 0.1 M ethanolamine block; readout 5 mM K3[Fe(CN)6], 0.1 M KCl in 1X PBS pH 7.4; temperature not given; commercial protein; single-stranded DNA

“GGTGGCTGGAGGGGGCGCGAACGTTTTTTTTTT [GA aptamer]”: binds.
